# According to the supplement of paper PMC12067093, “Discovery and optimisation of a covalent ligand for TRIM25 and its application to targeted protein ubiquitination” (Chemical Science, 2025):
# Sequences of proteins named here, by UniProt entry; tags and fusion partners are left off. A change or cut given only in a name is not applied to a line headed by its entry.
# UniProt Q9BSE5: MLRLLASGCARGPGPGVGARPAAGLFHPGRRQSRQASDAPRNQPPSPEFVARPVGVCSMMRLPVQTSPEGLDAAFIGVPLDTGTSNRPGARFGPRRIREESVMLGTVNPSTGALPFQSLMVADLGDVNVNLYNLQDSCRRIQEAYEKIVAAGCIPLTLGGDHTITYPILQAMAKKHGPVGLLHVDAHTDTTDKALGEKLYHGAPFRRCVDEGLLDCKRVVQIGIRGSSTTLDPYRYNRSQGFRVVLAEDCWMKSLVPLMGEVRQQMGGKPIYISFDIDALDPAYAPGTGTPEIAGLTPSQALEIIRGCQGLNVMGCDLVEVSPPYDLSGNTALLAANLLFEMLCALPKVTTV
# UniProt P23526: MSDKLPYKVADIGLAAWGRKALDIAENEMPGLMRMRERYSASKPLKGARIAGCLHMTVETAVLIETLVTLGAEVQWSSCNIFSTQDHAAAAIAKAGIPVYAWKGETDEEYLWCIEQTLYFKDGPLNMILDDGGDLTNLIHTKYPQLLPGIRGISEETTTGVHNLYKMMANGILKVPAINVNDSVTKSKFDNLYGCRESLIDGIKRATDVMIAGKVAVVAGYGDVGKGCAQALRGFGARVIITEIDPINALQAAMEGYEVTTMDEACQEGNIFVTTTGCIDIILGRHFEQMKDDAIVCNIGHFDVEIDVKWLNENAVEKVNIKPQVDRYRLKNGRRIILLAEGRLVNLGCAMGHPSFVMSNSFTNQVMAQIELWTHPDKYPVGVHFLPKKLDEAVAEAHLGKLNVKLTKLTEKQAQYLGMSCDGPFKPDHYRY
# UniProt Q9NYG5, whole entry, looked up: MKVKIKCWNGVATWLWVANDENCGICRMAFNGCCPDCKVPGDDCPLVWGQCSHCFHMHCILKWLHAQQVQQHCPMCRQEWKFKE
# UniProt Q02252: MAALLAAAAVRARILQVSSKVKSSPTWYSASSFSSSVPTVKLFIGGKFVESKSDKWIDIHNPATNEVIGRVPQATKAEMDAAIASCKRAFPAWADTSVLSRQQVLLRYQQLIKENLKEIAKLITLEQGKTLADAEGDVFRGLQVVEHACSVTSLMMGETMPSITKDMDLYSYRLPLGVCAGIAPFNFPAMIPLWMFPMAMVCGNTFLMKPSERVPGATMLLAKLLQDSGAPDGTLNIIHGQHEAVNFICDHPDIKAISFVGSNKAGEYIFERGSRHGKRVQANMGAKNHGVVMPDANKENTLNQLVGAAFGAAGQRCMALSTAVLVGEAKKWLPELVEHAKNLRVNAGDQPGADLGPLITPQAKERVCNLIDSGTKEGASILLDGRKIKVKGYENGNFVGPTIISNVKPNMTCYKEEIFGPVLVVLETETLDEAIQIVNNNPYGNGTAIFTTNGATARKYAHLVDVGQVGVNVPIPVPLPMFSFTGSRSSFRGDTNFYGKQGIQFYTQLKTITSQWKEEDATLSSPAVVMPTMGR
# UniProt P09917: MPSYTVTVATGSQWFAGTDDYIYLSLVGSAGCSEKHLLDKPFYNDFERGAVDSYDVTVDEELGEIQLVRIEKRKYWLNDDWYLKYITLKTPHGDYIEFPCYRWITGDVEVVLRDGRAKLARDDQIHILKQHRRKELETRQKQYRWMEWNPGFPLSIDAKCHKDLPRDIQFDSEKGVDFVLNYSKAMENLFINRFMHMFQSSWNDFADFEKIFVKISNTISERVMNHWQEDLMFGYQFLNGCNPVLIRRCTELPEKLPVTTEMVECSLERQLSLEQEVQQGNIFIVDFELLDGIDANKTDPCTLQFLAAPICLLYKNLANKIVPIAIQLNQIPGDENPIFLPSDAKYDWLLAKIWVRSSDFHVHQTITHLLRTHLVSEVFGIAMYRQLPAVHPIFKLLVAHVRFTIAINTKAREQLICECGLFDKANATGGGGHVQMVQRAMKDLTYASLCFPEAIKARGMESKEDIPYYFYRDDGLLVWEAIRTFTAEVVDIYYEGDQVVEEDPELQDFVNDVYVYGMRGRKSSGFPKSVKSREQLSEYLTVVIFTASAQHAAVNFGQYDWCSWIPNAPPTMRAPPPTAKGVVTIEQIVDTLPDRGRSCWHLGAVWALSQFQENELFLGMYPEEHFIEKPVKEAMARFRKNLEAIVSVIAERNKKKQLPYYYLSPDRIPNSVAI
# UniProt O00170: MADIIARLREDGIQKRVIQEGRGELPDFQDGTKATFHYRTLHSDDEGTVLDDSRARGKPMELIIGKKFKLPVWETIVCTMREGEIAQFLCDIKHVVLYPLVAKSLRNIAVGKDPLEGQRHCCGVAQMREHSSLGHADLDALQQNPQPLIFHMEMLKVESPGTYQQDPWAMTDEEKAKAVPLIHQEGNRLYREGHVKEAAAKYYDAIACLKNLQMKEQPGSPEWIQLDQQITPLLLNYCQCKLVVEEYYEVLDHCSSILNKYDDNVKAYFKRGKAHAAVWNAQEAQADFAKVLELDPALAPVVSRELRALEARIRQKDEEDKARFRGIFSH
# UniProt Q2TAA5: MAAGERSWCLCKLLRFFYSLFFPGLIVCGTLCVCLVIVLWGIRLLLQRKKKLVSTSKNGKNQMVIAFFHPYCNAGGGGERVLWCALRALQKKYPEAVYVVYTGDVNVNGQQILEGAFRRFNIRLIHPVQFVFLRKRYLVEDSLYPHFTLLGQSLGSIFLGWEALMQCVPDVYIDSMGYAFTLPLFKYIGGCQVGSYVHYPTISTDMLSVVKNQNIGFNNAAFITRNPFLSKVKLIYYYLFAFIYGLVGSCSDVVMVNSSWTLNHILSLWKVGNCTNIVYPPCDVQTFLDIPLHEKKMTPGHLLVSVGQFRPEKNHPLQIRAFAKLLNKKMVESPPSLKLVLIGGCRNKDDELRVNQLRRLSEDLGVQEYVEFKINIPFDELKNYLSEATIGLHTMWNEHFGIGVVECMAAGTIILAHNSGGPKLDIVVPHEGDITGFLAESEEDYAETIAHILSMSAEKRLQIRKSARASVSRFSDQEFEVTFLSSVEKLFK
# UniProt P54886: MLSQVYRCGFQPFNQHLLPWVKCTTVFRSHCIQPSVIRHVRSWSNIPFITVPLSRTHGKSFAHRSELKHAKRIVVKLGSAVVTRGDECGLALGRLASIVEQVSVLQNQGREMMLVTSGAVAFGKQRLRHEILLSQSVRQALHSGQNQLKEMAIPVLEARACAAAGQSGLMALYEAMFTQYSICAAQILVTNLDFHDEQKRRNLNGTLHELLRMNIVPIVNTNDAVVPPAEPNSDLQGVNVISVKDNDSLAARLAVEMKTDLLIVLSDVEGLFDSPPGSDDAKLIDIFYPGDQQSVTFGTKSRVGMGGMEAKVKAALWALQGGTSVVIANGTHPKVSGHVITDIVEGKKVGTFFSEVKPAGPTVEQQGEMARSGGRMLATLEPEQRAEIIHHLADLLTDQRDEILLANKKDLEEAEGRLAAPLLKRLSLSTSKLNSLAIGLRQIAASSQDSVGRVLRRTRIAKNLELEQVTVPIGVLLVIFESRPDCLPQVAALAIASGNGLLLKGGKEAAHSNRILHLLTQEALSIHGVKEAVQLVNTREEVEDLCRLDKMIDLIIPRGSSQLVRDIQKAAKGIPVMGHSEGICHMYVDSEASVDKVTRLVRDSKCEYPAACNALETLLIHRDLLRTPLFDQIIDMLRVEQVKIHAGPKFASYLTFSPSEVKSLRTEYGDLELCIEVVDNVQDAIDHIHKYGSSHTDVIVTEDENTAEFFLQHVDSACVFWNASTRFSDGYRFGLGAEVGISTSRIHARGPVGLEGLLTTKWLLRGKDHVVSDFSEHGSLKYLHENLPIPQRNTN
# UniProt P14550: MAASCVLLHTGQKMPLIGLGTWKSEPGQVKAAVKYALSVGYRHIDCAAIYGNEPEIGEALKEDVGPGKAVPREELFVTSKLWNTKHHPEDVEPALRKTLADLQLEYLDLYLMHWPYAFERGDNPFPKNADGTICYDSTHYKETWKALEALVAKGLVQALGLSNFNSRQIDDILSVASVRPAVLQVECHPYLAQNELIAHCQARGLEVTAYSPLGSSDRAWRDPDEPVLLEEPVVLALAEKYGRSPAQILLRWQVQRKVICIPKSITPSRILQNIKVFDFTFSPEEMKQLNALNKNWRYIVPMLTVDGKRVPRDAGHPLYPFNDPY
# UniProt Q9H1A4, whole entry, looked up: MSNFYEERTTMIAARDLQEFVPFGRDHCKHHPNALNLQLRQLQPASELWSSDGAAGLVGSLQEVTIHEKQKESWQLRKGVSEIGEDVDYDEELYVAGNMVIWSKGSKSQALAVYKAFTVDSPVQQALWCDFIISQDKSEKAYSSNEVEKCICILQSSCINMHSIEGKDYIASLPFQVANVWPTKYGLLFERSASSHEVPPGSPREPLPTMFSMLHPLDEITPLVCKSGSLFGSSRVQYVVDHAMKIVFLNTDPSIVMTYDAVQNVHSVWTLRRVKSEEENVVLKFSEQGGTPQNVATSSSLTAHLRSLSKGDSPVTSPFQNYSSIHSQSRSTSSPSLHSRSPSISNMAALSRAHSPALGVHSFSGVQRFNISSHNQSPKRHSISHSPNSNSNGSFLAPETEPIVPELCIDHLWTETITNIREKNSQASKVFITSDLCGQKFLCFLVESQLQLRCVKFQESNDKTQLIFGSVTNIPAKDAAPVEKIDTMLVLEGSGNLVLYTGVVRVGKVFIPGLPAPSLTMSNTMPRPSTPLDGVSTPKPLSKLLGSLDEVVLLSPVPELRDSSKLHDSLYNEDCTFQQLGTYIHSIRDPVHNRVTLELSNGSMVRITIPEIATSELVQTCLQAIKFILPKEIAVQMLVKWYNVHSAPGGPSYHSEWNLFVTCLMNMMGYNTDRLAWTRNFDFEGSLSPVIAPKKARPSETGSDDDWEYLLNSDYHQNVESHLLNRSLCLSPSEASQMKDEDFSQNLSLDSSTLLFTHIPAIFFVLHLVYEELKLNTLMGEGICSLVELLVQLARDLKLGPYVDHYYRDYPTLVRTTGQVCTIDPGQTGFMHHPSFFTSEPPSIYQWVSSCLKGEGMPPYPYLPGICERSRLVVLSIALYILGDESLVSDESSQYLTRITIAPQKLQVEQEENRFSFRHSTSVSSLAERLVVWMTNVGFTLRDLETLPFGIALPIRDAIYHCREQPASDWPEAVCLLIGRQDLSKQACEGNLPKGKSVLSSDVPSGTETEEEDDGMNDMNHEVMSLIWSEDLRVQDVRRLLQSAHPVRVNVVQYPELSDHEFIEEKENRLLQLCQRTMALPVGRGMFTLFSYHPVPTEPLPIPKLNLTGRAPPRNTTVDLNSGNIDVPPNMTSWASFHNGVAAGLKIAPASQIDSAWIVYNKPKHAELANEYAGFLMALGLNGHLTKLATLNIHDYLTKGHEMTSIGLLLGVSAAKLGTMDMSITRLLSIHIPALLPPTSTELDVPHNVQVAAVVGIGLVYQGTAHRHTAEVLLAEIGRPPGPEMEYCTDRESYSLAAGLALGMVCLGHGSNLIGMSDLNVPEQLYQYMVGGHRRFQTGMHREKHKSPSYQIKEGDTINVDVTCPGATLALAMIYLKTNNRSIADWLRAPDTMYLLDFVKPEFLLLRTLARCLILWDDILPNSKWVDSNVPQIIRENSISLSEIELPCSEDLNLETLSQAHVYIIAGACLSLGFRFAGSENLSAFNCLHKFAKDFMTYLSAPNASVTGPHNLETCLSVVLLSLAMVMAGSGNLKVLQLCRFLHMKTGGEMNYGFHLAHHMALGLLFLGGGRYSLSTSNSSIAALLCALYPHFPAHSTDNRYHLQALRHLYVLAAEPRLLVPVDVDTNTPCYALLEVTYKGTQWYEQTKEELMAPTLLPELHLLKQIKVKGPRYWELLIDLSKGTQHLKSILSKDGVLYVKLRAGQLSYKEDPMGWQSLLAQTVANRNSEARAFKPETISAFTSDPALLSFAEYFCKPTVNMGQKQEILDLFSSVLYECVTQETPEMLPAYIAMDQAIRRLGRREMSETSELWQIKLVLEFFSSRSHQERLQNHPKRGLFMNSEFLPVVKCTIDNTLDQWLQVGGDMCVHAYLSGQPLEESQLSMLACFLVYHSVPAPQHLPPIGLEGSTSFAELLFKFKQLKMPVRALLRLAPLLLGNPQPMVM
# UniProt Q9H553: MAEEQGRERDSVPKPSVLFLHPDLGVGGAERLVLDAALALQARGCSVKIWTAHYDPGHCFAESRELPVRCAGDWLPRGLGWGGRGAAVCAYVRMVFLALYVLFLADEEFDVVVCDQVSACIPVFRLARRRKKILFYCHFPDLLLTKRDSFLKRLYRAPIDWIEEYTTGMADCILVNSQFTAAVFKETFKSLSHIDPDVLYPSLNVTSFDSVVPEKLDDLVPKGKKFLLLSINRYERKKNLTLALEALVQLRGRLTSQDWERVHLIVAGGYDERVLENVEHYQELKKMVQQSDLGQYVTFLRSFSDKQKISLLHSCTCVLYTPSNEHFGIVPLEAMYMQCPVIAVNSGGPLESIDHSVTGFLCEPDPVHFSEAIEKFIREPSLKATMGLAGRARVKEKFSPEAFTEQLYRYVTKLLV
# The other results are listed elsewhere or left out.
# Compound: CC1Cc2ccccc2N1C(=O)C1CCCN(C1)C(=O)CCl (mixture of isomers) [TRIM25 ligand 11 (diastereomer mixture)]
# Experiment: probe-labelled cysteine peptide fold change vs DMSO (competition) (log2 fold change); higher = less target engagement (more negative = stronger competition)
# Conditions: THP-1, incubation time: 4 h
# 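Also: competitive chemoproteomic profiling in live THP-1 cells with an iodoacetamide desthiobiotin (IA-DTB) probe, comparing probe-labelled peptide intensities in compound-treated cells against DMSO-treated controls.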
Target,probe-labelled cysteine peptide fold change (10 µM),probe-labelled cysteine peptide fold change (50 µM)
AGMAT_Q9BSE5_250_VVLAEDCWMK (UniProt Q9BSE5),-0.138,0.215
AHCY_P23526_297_HFEQMKDDAIVCNIGHFDVEIDVK (UniProt P23526),-0.00275,0.0611
AKR1B1_P15121_299+304_VCALLSCTSHK (UniProt P15121),-0.068,-0.257
AHCYL1_O43865_392_NSCIVCNMGHSNTEIDVTSLR (UniProt O43865),0.056,-0.0276
ANAPC11_Q9NYG5_54_VPGDDCPLVWGQCSHCFHMHCILK (UniProt Q9NYG5),0.235,0.153
AKR7A2_O43488_132_RLQCPQVDLFYLHAPDHGTPVEETLHACQR (UniProt O43488),-0.215,-0.145
AHCY_P23526_421_QAQYLGMSCDGPFKPDHYRY (UniProt P23526),-0.136,-0.197
ALDH6A1_Q02252_149_GLQVVEHACSVTSLMMGETMPSITK (UniProt Q02252),-0.116,-0.034
ALOX5_P09917_419_EQLICECGLFDK (UniProt P09917),-0.177,0.0528
AIP_O00170_121_HCCGVAQMR (UniProt O00170),-0.0524,-0.25
ALG11_Q2TAA5_345_LVLIGGCR (UniProt Q2TAA5),-0.0253,0.0632
AMPD2_Q01433_310_TYEQGPDTPVSADAPVHPPALEQHPYEHCEPSTMPGDLGLGLR (UniProt Q01433),0.124,-0.261
ALDH18A1_P54886_674_SLRTEYGDLELCIEVVDNVQDAIDHIHK (UniProt P54886),-0.215,-0.127
AKR1A1_P14550_46_HIDCAAIYGNEPEIGEALKEDVGPGK (UniProt P14550),-0.539,-0.46
AMN1_Q8IY45_230_ILLFHGCPLITDHSR (UniProt Q8IY45),0.0839,-0.038
ANAPC1_Q9H1A4_437_VFITSDLCGQK (UniProt Q9H1A4),0.0148,0.0684
AGPAT3_Q9NRZ7_254_KYEADMCVR (UniProt Q9NRZ7),0.0275,-0.189
AMPD2_Q01433_792_LSSCDMCELAR (UniProt Q01433),0.137,0.208
ALG2_Q9H553_59_IWTAHYDPGHCFAESR (UniProt Q9H553),0.0186,-0.018
